# Measurements as given in the supplement of paper PMC8728848.
# This is one part of the list.
# B1: GS13971A-bth-447-22-447 (Bacteroides thetaiotaomicron) (protein)
# chain: EDVDNERSKGMFSASQSGFSTIEVYDLGPLNKIDLSIAKAGLEDTGGTVTFSVEQSLLDSLNNADGTSYQLLPPECYTIENATYSVSPGGDRRVTGGSLVYDPHKIYNLCGFDELKYVLPLRVSSTGTPMNSDRTATLYGFIVKEAIVRLASTGGDFVVEGGTTTSPMNLDTEISFENEWDLTTSFATKGADYVDNYNSANSTYYIPLPSDFYTLPDVTIAKGKTTGGSAISLLGETLPPGNYLLPVSLGGLSGQGDASINIDKETVANYFVIKQGGPINRDHWTVTANTEEKTGEVSAAYPHNGQTISLIDGEINTFWHSKWQGGEVAPPYEIILDMGKENSVSQLGLIARQNALTSMNLEIYAGDDGETWNLIGKYFFDGSIKTEQMVPVKACDARWIRIYIPTLGSGSSVGHLAEIYVYGTDK
# Assays:
# Assay in all cases: glycan array binding signal (z-score within array); higher = stronger binding
# Conditions in all cases: glycan notation: IUPAC condensed, linker removed
# [1] = molecular target: GlcNAc(a1-4)Gal(b1-3)GlcNAc
# How it was run: (§1)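 The binding signal is a Z-score computed within each array and averaged over linkers. Arrays of the same protein sequence at different concentrations or buffers were also averaged together. Data originate from 3228 arrays in the Consortium for Functional Glycomics database, kept only where the protein sequence was available.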
# [2] = molecular target: GlcNAc(a1-4)Gal(b1-4)GalNAc
# How it was run: as §1
# [3] = molecular target: GlcNAc(a1-4)Gal(b1-4)GlcNAc
# How it was run: as §1
# [4] = molecular target: GlcNAc(a1-4)Gal(b1-4)GlcNAc(b1-3)Gal(b1-4)Glc
# How it was run: as §1
# [5] = molecular target: GlcNAc(a1-4)Gal(b1-4)GlcNAc(b1-3)Gal(b1-4)GlcNAc
# How it was run: as §1
# [6] = molecular target: GlcNAc(a1-4)Gal(b1-4)GlcNAc(b1-3)Gal(b1-4)GlcNAc(b1-3)Gal(b1-4)GlcNAc
# How it was run: as §1
# [7] = molecular target: GlcNAc(a1-4)Gal(b1-4)GlcNAc(b1-3)Gal(b1-4)[Fuc(a1-3)]GlcNAc(b1-3)Gal(b1-4)[Fuc(a1-3)]GlcNAc
# How it was run: as §1
# [8] = molecular target: GlcNAc(a1-6)Gal(b1-4)GlcNAc
# How it was run: as §1
# [9] = molecular target: GlcNAc(b1-2)Gal(b1-3)GalNAc
# How it was run: as §1
# [10] = molecular target: GlcNAc(b1-2)Man(a1-3)[GlcNAc(b1-2)Man(a1-6)]Man(b1-4)GlcNAc(b1-4)GlcNAc
# How it was run: as §1
# [11] = molecular target: GlcNAc(b1-2)Man(a1-3)[GlcNAc(b1-2)Man(a1-6)]Man(b1-4)GlcNAc(b1-4)[Fuc(a1-6)]GlcNAc
# How it was run: as §1
# [12] = molecular target: GlcNAc(b1-2)Man(a1-3)[GlcNAc(b1-4)][GlcNAc(b1-2)Man(a1-6)]Man(b1-4)GlcNAc(b1-4)GlcNAc
# How it was run: as §1
# [13] = molecular target: GlcNAc(b1-2)Man(a1-3)[GlcNAc(b1-4)][GlcNAc(b1-2)Man(a1-6)]Man(b1-4)GlcNAc(b1-4)[Fuc(a1-6)]GlcNAc
# How it was run: as §1
# [14] = molecular target: GlcNAc(b1-2)[GlcNAc(b1-4)]Man(a1-3)[GlcNAc(b1-2)Man(a1-6)]Man(b1-4)GlcNAc(b1-4)GlcNAc
# How it was run: as §1
# [15] = molecular target: GlcNAc(b1-2)[GlcNAc(b1-4)]Man(a1-3)[GlcNAc(b1-4)][GlcNAc(b1-2)Man(a1-6)]Man(b1-4)GlcNAc(b1-4)GlcNAc
# How it was run: as §1
# [16] = molecular target: GlcNAc(b1-2)[GlcNAc(b1-4)]Man(a1-3)[GlcNAc(b1-4)][GlcNAc(b1-2)[GlcNAc(b1-6)]Man(a1-6)]Man(b1-4)GlcNAc(b1-4)GlcNAc
# How it was run: as §1
# [17] = molecular target: GlcNAc(b1-2)[GlcNAc(b1-4)]Man(a1-3)[GlcNAc(b1-4)][GlcNAc(b1-2)[GlcNAc(b1-6)]Man(a1-6)]Man(b1-4)GlcNAc(b1-4)[Fuc(a1-6)]GlcNAc
# How it was run: as §1
# [18] = molecular target: GlcNAc(b1-2)[GlcNAc(b1-6)]Man(a1-6)[GlcNAc(b1-2)Man(a1-3)]Man(b1-4)GlcNAc(b1-4)GlcNAc
# How it was run: as §1
# [19] = molecular target: GlcNAc(b1-2)[GlcNAc(b1-6)]Man(a1-6)[GlcNAc(b1-2)Man(a1-3)]Man(b1-4)GlcNAc(b1-4)[Fuc(a1-6)]GlcNAc
# How it was run: as §1
# [20] = molecular target: GlcNAc(b1-2)[GlcNAc(b1-6)]Man(a1-6)[GlcNAc(b1-4)][GlcNAc(b1-2)Man(a1-3)]Man(b1-4)GlcNAc(b1-4)GlcNAc
# How it was run: as §1
# GlcNAc(b1-3)Fuc = molecular target: GlcNAc(b1-3)Fuc
# How it was run: as §1
# GlcNAc(b1-3)Gal = molecular target: GlcNAc(b1-3)Gal
# How it was run: as §1
# [21] = molecular target: GlcNAc(b1-3)Gal(b1-3)GalNAc
# How it was run: as §1
# GlcNAc(b1-3)Gal(b1-4)Glc = molecular target: GlcNAc(b1-3)Gal(b1-4)Glc
# How it was run: as §1
# [22] = molecular target: GlcNAc(b1-3)Gal(b1-4)GlcNAc
# How it was run: as §1
# [23] = molecular target: GlcNAc(b1-3)Gal(b1-4)GlcNAc(b1-2)Man(a1-3)[GlcNAc(b1-3)Gal(b1-4)GlcNAc(b1-2)Man(a1-6)]Man(b1-4)GlcNAc(b1-4)GlcNAc
# How it was run: as §1
# [24] = molecular target: GlcNAc(b1-3)Gal(b1-4)GlcNAc(b1-2)Man(a1-3)[GlcNAc(b1-3)Gal(b1-4)GlcNAc(b1-2)Man(a1-6)]Man(b1-4)GlcNAc(b1-4)[Fuc(a1-6)]GlcNAc
# How it was run: as §1
# [25] = molecular target: GlcNAc(b1-3)Gal(b1-4)GlcNAc(b1-2)[GlcNAc(b1-3)Gal(b1-4)GlcNAc(b1-6)]Man(a1-6)[GlcNAc(b1-3)Gal(b1-4)GlcNAc(b1-2)Man(a1-3)]Man(b1-4)GlcNAc(b1-4)GlcNAc
# How it was run: as §1
# [26] = molecular target: GlcNAc(b1-3)Gal(b1-4)GlcNAc(b1-3)Gal(b1-4)GlcNAc
# How it was run: as §1
# [27] = molecular target: GlcNAc(b1-3)Gal(b1-4)GlcNAc(b1-3)Gal(b1-4)GlcNAc(b1-2)Man(a1-3)[GlcNAc(b1-3)Gal(b1-4)GlcNAc(b1-3)Gal(b1-4)GlcNAc(b1-2)Man(a1-6)]Man(b1-4)GlcNAc(b1-4)GlcNAc
# How it was run: as §1
# [28] = molecular target: GlcNAc(b1-3)Gal(b1-4)GlcNAc(b1-3)Gal(b1-4)GlcNAc(b1-2)Man(a1-3)[GlcNAc(b1-3)Gal(b1-4)GlcNAc(b1-3)Gal(b1-4)GlcNAc(b1-2)Man(a1-6)]Man(b1-4)GlcNAc(b1-4)[Fuc(a1-6)]GlcNAc
# How it was run: as §1
# [29] = molecular target: GlcNAc(b1-3)Gal(b1-4)GlcNAc(b1-3)Gal(b1-4)GlcNAc(b1-2)[GlcNAc(b1-3)Gal(b1-4)GlcNAc(b1-3)Gal(b1-4)GlcNAc(b1-6)]Man(a1-6)[GlcNAc(b1-3)Gal(b1-4)GlcNAc(b1-3)Gal(b1-4)GlcNAc(b1-2)Man(a1-3)]Man(b1-4)GlcNAc(b1-4)[Fuc(a1-6)]GlcNAc
# How it was run: as §1
# [30] = molecular target: GlcNAc(b1-3)Gal(b1-4)GlcNAc(b1-3)Gal(b1-4)GlcNAc(b1-3)Gal(b1-4)GlcNAc(b1-2)Man(a1-3)[GlcNAc(b1-3)Gal(b1-4)GlcNAc(b1-3)Gal(b1-4)GlcNAc(b1-3)Gal(b1-4)GlcNAc(b1-2)Man(a1-6)]Man(b1-4)GlcNAc(b1-4)GlcNAc
# How it was run: as §1
# [31] = molecular target: GlcNAc(b1-3)Gal(b1-4)GlcNAc(b1-3)Gal(b1-4)GlcNAc(b1-3)Gal(b1-4)GlcNAc(b1-2)Man(a1-3)[GlcNAc(b1-3)Gal(b1-4)GlcNAc(b1-3)Gal(b1-4)GlcNAc(b1-3)Gal(b1-4)GlcNAc(b1-2)Man(a1-6)]Man(b1-4)GlcNAc(b1-4)[Fuc(a1-6)]GlcNAc
# How it was run: as §1
# [32] = molecular target: GlcNAc(b1-3)Gal(b1-4)GlcNAc(b1-3)Gal(b1-4)GlcNAc(b1-3)Gal(b1-4)GlcNAc(b1-2)[GlcNAc(b1-3)Gal(b1-4)GlcNAc(b1-3)Gal(b1-4)GlcNAc(b1-3)Gal(b1-4)GlcNAc(b1-6)]Man(a1-6)[GlcNAc(b1-3)Gal(b1-4)GlcNAc(b1-3)Gal(b1-4)GlcNAc(b1-3)Gal(b1-4)GlcNAc(b1-2)Man(a1-3)]Man(b1-4)GlcNAc(b1-4)[Fuc(a1-6)]GlcNAc
# How it was run: as §1
# [33] = molecular target: GlcNAc(b1-3)Gal(b1-4)GlcNAc(b1-3)Gal(b1-4)GlcNAc(b1-3)Gal(b1-4)GlcNAc(b1-3)Gal(b1-4)GlcNAc(b1-2)Man(a1-3)[GlcNAc(b1-3)Gal(b1-4)GlcNAc(b1-3)Gal(b1-4)GlcNAc(b1-3)Gal(b1-4)GlcNAc(b1-3)Gal(b1-4)GlcNAc(b1-2)Man(a1-6)]Man(b1-4)GlcNAc(b1-4)GlcNAc
# How it was run: as §1
# [34] = molecular target: GlcNAc(b1-3)Gal(b1-4)GlcNAc(b1-3)Gal(b1-4)GlcNAc(b1-3)Gal(b1-4)GlcNAc(b1-3)Gal(b1-4)GlcNAc(b1-2)Man(a1-3)[GlcNAc(b1-3)Gal(b1-4)GlcNAc(b1-3)Gal(b1-4)GlcNAc(b1-3)Gal(b1-4)GlcNAc(b1-3)Gal(b1-4)GlcNAc(b1-2)Man(a1-6)]Man(b1-4)GlcNAc(b1-4)[Fuc(a1-6)]GlcNAc
# How it was run: as §1
# [35] = molecular target: GlcNAc(b1-3)Gal(b1-4)GlcNAc(b1-3)Gal(b1-4)GlcNAc(b1-3)Gal(b1-4)GlcNAc(b1-3)Gal(b1-4)GlcNAc(b1-2)[GlcNAc(b1-3)Gal(b1-4)GlcNAc(b1-3)Gal(b1-4)GlcNAc(b1-3)Gal(b1-4)GlcNAc(b1-3)Gal(b1-4)GlcNAc(b1-6)]Man(a1-6)[GlcNAc(b1-3)Gal(b1-4)GlcNAc(b1-3)Gal(b1-4)GlcNAc(b1-3)Gal(b1-4)GlcNAc(b1-3)Gal(b1-4)GlcNAc(b1-2)Man(a1-3)]Man(b1-4)GlcNAc(b1-4)[Fuc(a1-6)]GlcNAc
# How it was run: as §1
binder,measurement,setting,value
B1,glycan array binding signal (z-score),[1],-1.29
same,glycan array binding signal (z-score),[2],-0.687
same,glycan array binding signal (z-score),[3],-0.929
same,glycan array binding signal (z-score),[4],-0.676
same,glycan array binding signal (z-score),[5],-0.834
same,glycan array binding signal (z-score),[6],0.801
same,glycan array binding signal (z-score),[7],1.77
same,glycan array binding signal (z-score),[8],0.967
same,glycan array binding signal (z-score),[9],-0.633
same,glycan array binding signal (z-score),[10],-0.257
same,glycan array binding signal (z-score),[11],1.39
same,glycan array binding signal (z-score),[12],-0.881
same,glycan array binding signal (z-score),[13],0.422
same,glycan array binding signal (z-score),[14],-1.32
same,glycan array binding signal (z-score),[15],1.48
same,glycan array binding signal (z-score),[16],-0.139
same,glycan array binding signal (z-score),[17],-0.86
same,glycan array binding signal (z-score),[18],0.703
same,glycan array binding signal (z-score),[19],-0.506
same,glycan array binding signal (z-score),[20],0.411
same,glycan array binding signal (z-score),GlcNAc(b1-3)Fuc,-0.602
same,glycan array binding signal (z-score),GlcNAc(b1-3)Gal,-0.615
same,glycan array binding signal (z-score),[21],0.382
same,glycan array binding signal (z-score),GlcNAc(b1-3)Gal(b1-4)Glc,0.376
same,glycan array binding signal (z-score),[22],-0.19
same,glycan array binding signal (z-score),[23],-0.725
same,glycan array binding signal (z-score),[24],0.562
same,glycan array binding signal (z-score),[25],0.752
same,glycan array binding signal (z-score),[26],-0.549
same,glycan array binding signal (z-score),[27],1.15
same,glycan array binding signal (z-score),[28],0.306
same,glycan array binding signal (z-score),[29],-0.034
same,glycan array binding signal (z-score),[30],0.037
same,glycan array binding signal (z-score),[31],-0.698
same,glycan array binding signal (z-score),[32],2.94
same,glycan array binding signal (z-score),[33],0.959
same,glycan array binding signal (z-score),[34],0.389
same,glycan array binding signal (z-score),[35],1.1

# Retrieved one by one from above (2):
binder,measurement,setting,value
B1,glycan array binding signal (z-score),[24],0.562
same,glycan array binding signal (z-score),[20],0.411
